Measured values as given in patent US11274132B2, “Combined preparations of PKM2 modulators and HMGB1” (Ruprecht-Karls-Universität Heidelberg, priority 2015, dated 2022).
Not every detail of the peptide structures is certain; ends, links or a residue may be inferred. Residues, ends and D or L forms follow the SMILES beside them.

Protein sequences, listed by entry. Tags and fused reporters are not part of them.
UniProt P14618, whole entry: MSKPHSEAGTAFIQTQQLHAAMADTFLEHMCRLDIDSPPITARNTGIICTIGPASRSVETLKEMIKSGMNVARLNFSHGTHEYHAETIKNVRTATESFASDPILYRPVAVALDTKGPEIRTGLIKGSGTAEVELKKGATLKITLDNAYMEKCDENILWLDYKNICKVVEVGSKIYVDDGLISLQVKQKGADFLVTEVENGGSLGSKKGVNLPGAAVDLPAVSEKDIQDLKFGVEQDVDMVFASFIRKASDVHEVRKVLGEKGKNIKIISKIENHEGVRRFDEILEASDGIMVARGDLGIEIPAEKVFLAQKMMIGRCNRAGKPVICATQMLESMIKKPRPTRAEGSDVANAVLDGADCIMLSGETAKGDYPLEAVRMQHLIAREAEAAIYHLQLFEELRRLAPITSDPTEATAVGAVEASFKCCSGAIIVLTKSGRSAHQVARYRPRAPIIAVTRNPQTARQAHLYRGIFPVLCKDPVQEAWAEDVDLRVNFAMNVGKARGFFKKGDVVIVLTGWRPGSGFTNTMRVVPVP

Key:
PKM2 = PKM2 (Homo sapiens, UniProt P14618); assay: Immunoprecipitation with 125I-labeled HMGB1 (PKM2 pull-down); format: binding; parameters: endogenous in cells; conditions: P-M2tide at non-cytotoxic concentrations
Procedure: FIG. 6: Co-administration of HMGB1 and an activator (A left and right) or an inhibitor (B) of PMK2 has a synergistic cytotoxic effect, as determined in the crystal violet cytotoxicity assay (assays were performed in duplicate, * indicates p<0.05). (C) Immunoprecipitation with I125-labeled HMGB1 (PKM2 pull-down). HMGB1, like phosphotyrosine-peptides, binds close to the allosteric center of PKM2, leading to a competition in binding.

colorectal cancer cells = assay: Crystal violet cytotoxicity assay, cell lines not given; format: cell-based; conditions: 100 μM, 24 h
Procedure: Human colon carcinoma cell lines SW480, HCT116, HT29 and Caco2, the human glioblastoma cell line U251MG and the Natural killer cell line NK-92 Cl were purchased from ATCC. Cell lines were regularly tested for contamination by multiplex PCR performed in the Genomics and Proteomics Core Facility 2 (DKFZ, Heidelberg, Germany). For experiments, cells were cultured for no more than 10 passages. Rho zero cells were generated as described earlier 1. (Gdynia, G. et al. Danger signaling protein HMGB1 induces a distinct form of cell death accompanied by formation of giant mitochondria. Cancer research 70, 8558-8568). […] For cytotoxicity measurements, cells were cultured in 96-well plates, treated with recombinant human HMGB1 protein (Sigma-Aldrich®), glycyrrhizinic acid ((3β, 18α)-30-hydroxy-11, 30-dioxoolean-12-en-3-yl 2-O-β-D-glucopyranuronosyl-β-D-glucopyranosiduronic acid)) (Sigma-Aldrich®), 10 μM (non-toxic) or 100 μM (cytotoxic) P-M2tide (aa sequence: GGAVDDDpYAQFANGG; #BML-P239-0001; Enzo Life Sciences) or 100 μM ML-265 (Cayman Chemical), then cell viability was assessed by crystal violet staining (Gillies, R. J., Didier, N. & Denton, M. Determination of cell number in monolayer cultures. […] Cytotoxic activity of supernatants from stimulated NK cells was assessed in 96-well plates for 3 days with RPMI medium as reference. […]

For `CC(C)[C@H](NC(=O)[C@H](C)NC(=O)CNC(=O)CN)C(=O)N[C@@H](CC(=O)O)C(=O)N[C@@H](CC(=O)O)C(=O)N[C@@H](CC(=O)O)C(=O)N[C@@H](Cc1ccc(OP(=O)(O)O)cc1)C(=O)N[C@@H](C)C(=O)N[C@@H](CCC(N)=O)C(=O)N[C@@H](Cc1ccccc1)C(=O)N[C@@H](C)C(=O)N[C@@H](CC(N)=O)C(=O)NCC(=O)NCC(=O)O` [P-M2tide, GGAVDDDpYAQFANGG] (HELM PEPTIDE1{G.G.A.V.D.D.D.[O=C([C@H](Cc1ccc(OP(=O)(O)O)cc1)N[*:1])[*:2]].A.Q.F.A.N.G.G}$$$$V2.0), the “competition with binding of HMGB1 to PKM2” value (PKM2) was “substantially inhibited” and the “induction of cell death” value (colorectal cancer cells) was “induced substantial cell death”.
